We go through one molecule from PMC12827253.

The assay deals with Flag-tagged RIPK3 ΔRHIM mutant. In words: co-IP; anti-FLAG agarose beads, 4 h at 4 °C, 5 washes in lysis buffer (120 mM NaCl, 2 mM KCl, 10% glycerol, 2 mM EDTA, 1% Triton X-100, 30 mM Tris-HCl pH 7.4); lysates of transfected HEK293T cells, with or without GADD45β (transfected or Dox-induced); also NEMO-KO cells (Supplementary Fig. S2b).

Results are given in words; binding and its absence hold for the method and conditions named. Binding seen in cells or lysates may run through a third protein. Binding can be weak; no strength is given. Where a sequence is shown, tags or fusion partners need not be part of it.

B1: HA-tagged GADD45β (protein, UniProt P22339 1-160)
chain: MTLEELVASDNAVQKMQAVTAAVEQLLVAAQRQDRLTVGVYEAAKLMNVDPDSVVLCLLAIDEEEEDDIALQIHFTLIQSFCCDNDIDIVRVSGMQRLAQLLGEPAETLGTTEARDLHCLLVTNCHTDSWKSQGLVEVASYCEESRGNNQWVPYISLEER
Take B1: the binding entry is given as “binds”.
